Measurements: PMC7819943, “Rice protein-binding microarrays: a tool to detect cis-acting elements near promoter regions in rice”
This is one part of the list.

The chains behind the UniProt entries cited, without tags or fusion partners.
UniProt Q0JBA9, entry or part of it: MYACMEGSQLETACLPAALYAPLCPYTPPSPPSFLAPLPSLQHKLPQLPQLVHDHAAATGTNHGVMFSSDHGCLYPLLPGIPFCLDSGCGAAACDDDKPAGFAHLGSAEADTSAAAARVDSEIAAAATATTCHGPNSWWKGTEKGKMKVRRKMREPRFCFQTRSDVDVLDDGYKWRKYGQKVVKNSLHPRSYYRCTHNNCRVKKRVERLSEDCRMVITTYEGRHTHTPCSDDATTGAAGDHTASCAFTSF

Each sequence was assayed against OsWRKY34 (Oryza sativa, UniProt Q0JBA9 1-250) (assay: protein-binding microarray (RPBM); PBS, 2% BSA, 51.3 ng/ul salmon testes DNA, 50 uM zinc acetate, 200 nM TF, 25 C, 1 h; high values mean tight binding). Conditions: protein: recombinant; tags: N-terminal polyhistidine and DsRed monomer fusion (pET32a); label: CyDye5-dUTP incorporated in the synthesized complementary strand; 3' TTTTT single-stranded linker to array surface; dsDNA, one strand shown.
Summary of the method: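 A custom Agilent array was converted to double-stranded form by primer extension with Cy5-dUTP and blocked with 2% BSA. Protein at 200 nM in PBS with 2% BSA, salmon testes DNA and 50 µM zinc acetate was applied for 1 h at 25 °C, followed by washing. The proteins were polyhistidine–DsRed N-terminal fusions of transcription factors, expressed in E. coli BL21-CodonPlus and Ni–NTA-purified. The binding signal is per-feature fluorescence intensity (arbitrary units) from an Axon 4000B scanner.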
With “TTCCTCTCTGCTCGTGTGCTGCGCGCCTTCGTTGACGTCCCGGAGTCACCTAGTGCAG” the binding signal was 9040 fluorescence intensity (a.u.). For “GTACCACTTTCTCTATTTTTCATGTGTTTTTTAATTCTTACGGAGTCACCTAGTGCAG”, the binding signal was 9980 fluorescence intensity (a.u.). “GTACATGTTGCTATTTTTTGGATGGAGTGAGTATATTTTTCGGAGTCACCTAGTGCAG” was tested, and the binding signal was 9300 fluorescence intensity (a.u.). In the case of “CGCCGCCGTCGCCGCCGCCGCCGCATCCGCATCCGCATCCCGGAGTCACCTAGTGCAG”, the binding signal is reported as 8200 fluorescence intensity (a.u.). “AGTAGCACTTAAGCCTTCCTCTCTAGCTAGCATCTCTTGTCGGAGTCACCTAGTGCAG” was tested, and the binding signal was 8400 fluorescence intensity (a.u.). “AACTGAGAACCCTAATTCTTGTAGGGCCATGTTCAATCGCCGGAGTCACCTAGTGCAG” was tested, and the binding signal was 9050 fluorescence intensity (a.u.). For “CGATTATTCCTGATGTTGCAATTGCCATCCTCCGTCACCCCGGAGTCACCTAGTGCAG”, the binding signal was 10000 fluorescence intensity (a.u.). For “GGATAGACAGTTTCCTTTGATCATGTGACGTTTGATTATTCGGAGTCACCTAGTGCAG”, the binding signal was 8570 fluorescence intensity (a.u.). For “GCGCACCTTTTCTTCTACCAGTGGAGGTCCATCTTGTACTCGGAGTCACCTAGTGCAG”, the binding signal was 8840 fluorescence intensity (a.u.). In the case of “TCCGCCGCGGCCACCACCCTCACCCTCACCCTCGTCGCCACGGAGTCACCTAGTGCAG”, the binding signal is reported as 9260 fluorescence intensity (a.u.). With “GTGGAGGGTGGGGTGACGTGGTTTCCGGGTTGGTGCAATGCGGAGTCACCTAGTGCAG” the binding signal was 13300 fluorescence intensity (a.u.). With “CTATTTGGTCGACTGTCAGCATTTTGCCCTTGACGCTCATCGGAGTCACCTAGTGCAG” the binding signal was 8860 fluorescence intensity (a.u.). For “GTAGCTGACATACCTGTTGATATTGTGTCGTCCGTAGTGACGGAGTCACCTAGTGCAG”, the binding signal was 8230 fluorescence intensity (a.u.). For “CATGTGTTTTTCCTATATTTTCCAATCCTCTGTTTTATACCGGAGTCACCTAGTGCAG”, the binding signal was 10600 fluorescence intensity (a.u.). For “CGAACCTTCCACACACAGACTAGGAGCTTAGAATCTCACCCGGAGTCACCTAGTGCAG”, the binding signal was 8450 fluorescence intensity (a.u.). In the case of “ATCCCTCTTTTCACATTTGTTTGTTCTCACTATATTGTTCCGGAGTCACCTAGTGCAG”, the binding signal is reported as 9380 fluorescence intensity (a.u.). With “CTAAATGTTACATACGCGTTGGTGGGGCCGGGGCGGCAGTCGGAGTCACCTAGTGCAG” the binding signal was 13200 fluorescence intensity (a.u.). “CTGCTAGTCACATCATTGCTCCACTTCACCATCTTGTCATCGGAGTCACCTAGTGCAG” was tested, and the binding signal was 10800 fluorescence intensity (a.u.). “AATTCCTGGTGTTAAGCTCTGTGTGGTGTGTGCTCCTATTCGGAGTCACCTAGTGCAG” was tested, and the binding signal was 9090 fluorescence intensity (a.u.). “ATCTCTCCGAATTCTCCCCATCATCGCCATCGACGGCTTCCGGAGTCACCTAGTGCAG” was tested, and the binding signal was 10200 fluorescence intensity (a.u.). “CTTCCTCGCGCCGCCACCGCCGCCGCCTCCGCCTCGCACACGGAGTCACCTAGTGCAG” was tested, and the binding signal was 8500 fluorescence intensity (a.u.). For “GGATACTGCACAGCCCTTGATCACAATACAGTGCATTTCTCGGAGTCACCTAGTGCAG”, the binding signal was 9450 fluorescence intensity (a.u.). With “TATGATTAAACCGAAGCTCATCTGTGGCCCATTACTGCCCCGGAGTCACCTAGTGCAG” the binding signal was 8040 fluorescence intensity (a.u.). With “AGCTCACAATTTTTTTTCTTGCTCATGACGTGCTTAGACCCGGAGTCACCTAGTGCAG” the binding signal was 11000 fluorescence intensity (a.u.). In the case of “CGTCCCTCGCGCACCGCCCGGCCAAGCCGCTCCCAGGGACCGGAGTCACCTAGTGCAG”, the binding signal is reported as 8640 fluorescence intensity (a.u.). With “GGGCATTTTTGATATTTCACGCGATTTCACTCTCCTCTTCCGGAGTCACCTAGTGCAG” the binding signal was 8770 fluorescence intensity (a.u.). In the case of “TCTTAGACATGATATTTTTATAAATGTAGTTTGACTTTTTCGGAGTCACCTAGTGCAG”, the binding signal is reported as 9730 fluorescence intensity (a.u.). With “TACATTGCTAGAAAGCGCCGCACCCGTCACCGGCAAACTCCGGAGTCACCTAGTGCAG” the binding signal was 9870 fluorescence intensity (a.u.). For “CTAGCTTTCGTCTCAGCGCTCCGTCCTGCGGTCTTTTGGGCGGAGTCACCTAGTGCAG”, the binding signal was 10600 fluorescence intensity (a.u.). In the case of “CCTTTTCTCGATCTGCACCATCCCCAAGCCCAATAAAAGACGGAGTCACCTAGTGCAG”, the binding signal is reported as 8520 fluorescence intensity (a.u.). In the case of “TCCACCACACACGCGCACCAACCGAAGGCGAAATCCCCAACGGAGTCACCTAGTGCAG”, the binding signal is reported as 8060 fluorescence intensity (a.u.). With “TATTATAGGTGTTGGTTCTGTATCGGTTAATTAAAGAACGCGGAGTCACCTAGTGCAG” the binding signal was 9440 fluorescence intensity (a.u.). With “ACACACACAGCCCCAGATTCCATTTCACACTCGCGTATATCGGAGTCACCTAGTGCAG” the binding signal was 8870 fluorescence intensity (a.u.). In the case of “ACTCAAGTCTTAGGGGCTGTTTGGTTGGTTGCCACACTTTCGGAGTCACCTAGTGCAG”, the binding signal is reported as 10200 fluorescence intensity (a.u.). For “TAGCTCACATCGTTTTACGTATCTTCCCAATCTCCTGATCCGGAGTCACCTAGTGCAG”, the binding signal was 8950 fluorescence intensity (a.u.). In the case of “ACGCACACCACTCCACTCCATCCATCTACTCCACCGCGCTCGGAGTCACCTAGTGCAG”, the binding signal is reported as 8360 fluorescence intensity (a.u.). “TTTTTGGATTGACTACTTCATTGTTCTATGTGAGCACGTTCGGAGTCACCTAGTGCAG” was tested, and the binding signal was 8760 fluorescence intensity (a.u.). For “GCCGGATCGAACTCATCAGCATCAGCACATCTCTCTTCTCCGGAGTCACCTAGTGCAG”, the binding signal was 8970 fluorescence intensity (a.u.). In the case of “CCTCGTCGTCCTCCACTCCGCTCTCCAACGCGAACGCTTCCGGAGTCACCTAGTGCAG”, the binding signal is reported as 8130 fluorescence intensity (a.u.). With “TGCCCTGCATTGCACAGTACAGCAACCATACGATTCCGTACGGAGTCACCTAGTGCAG” the binding signal was 8950 fluorescence intensity (a.u.). With “ACGCCGTTGGCTTTTTAGCATATATTTGACCATTCATCTTCGGAGTCACCTAGTGCAG” the binding signal was 8190 fluorescence intensity (a.u.). With “GTATTGCTCTTATTCACCATAATCATACCAGTATAATATTCGGAGTCACCTAGTGCAG” the binding signal was 8390 fluorescence intensity (a.u.). For “TCACGTCCAACGTTTGACCGCTCGTCTTATTTGAAATTTTCGGAGTCACCTAGTGCAG”, the binding signal was 8370 fluorescence intensity (a.u.). With “CACACGTCTCCATCTCCATCGAGCCCAGCTCCACGAGCCGCGGAGTCACCTAGTGCAG” the binding signal was 9350 fluorescence intensity (a.u.). For “ATGCCCCGATGGCCCATGGCCCCGCCGACTCGCACCCGACCGGAGTCACCTAGTGCAG”, the binding signal was 10500 fluorescence intensity (a.u.). With “CAGCTCGTTGACATTCCTAATTGTTTTGATTGTCATCCACCGGAGTCACCTAGTGCAG” the binding signal was 8480 fluorescence intensity (a.u.). For “GCATTTGTAGTGGCACAACCGCTGTCACTGTCGTTACACACGGAGTCACCTAGTGCAG”, the binding signal was 8780 fluorescence intensity (a.u.). With “ACGCTCCATCAATGTATTTTTGTGTCGGGGCCCTAACTTACGGAGTCACCTAGTGCAG” the binding signal was 9030 fluorescence intensity (a.u.). For “GGGGTTGATCTCCCGCCCATTTGGGGCTCGGTATTGAGGTCGGAGTCACCTAGTGCAG”, the binding signal was 8060 fluorescence intensity (a.u.). In the case of “TTGGATGTTGGTATGCTGTGTAGCTGTTGCTCTATGAACACGGAGTCACCTAGTGCAG”, the binding signal is reported as 10600 fluorescence intensity (a.u.). For “GTTTTGTGCTGTGCTTTCCCCTCCTTTCATGCCTCAAAGCCGGAGTCACCTAGTGCAG”, the binding signal was 9230 fluorescence intensity (a.u.). “GTGATCCGACCTGACCGGCCTCCGTTTCGCGTCTCCGTTGCGGAGTCACCTAGTGCAG” was tested, and the binding signal was 9180 fluorescence intensity (a.u.). “CTGCCAATTCCCAGCCTCTCCTTGTCTCCCCGAGGCTAAACGGAGTCACCTAGTGCAG” was tested, and the binding signal was 10400 fluorescence intensity (a.u.). “CGCGTACCGACAGGTCACATCGGGGCCATCCTGACCGTCCCGGAGTCACCTAGTGCAG” was tested, and the binding signal was 8850 fluorescence intensity (a.u.).
